The experiment addresses T1, MAPL (mouse, endogenous in liver) (mouse (endogenous in liver)) (UniProt Q8VCM5).
T1 sequence: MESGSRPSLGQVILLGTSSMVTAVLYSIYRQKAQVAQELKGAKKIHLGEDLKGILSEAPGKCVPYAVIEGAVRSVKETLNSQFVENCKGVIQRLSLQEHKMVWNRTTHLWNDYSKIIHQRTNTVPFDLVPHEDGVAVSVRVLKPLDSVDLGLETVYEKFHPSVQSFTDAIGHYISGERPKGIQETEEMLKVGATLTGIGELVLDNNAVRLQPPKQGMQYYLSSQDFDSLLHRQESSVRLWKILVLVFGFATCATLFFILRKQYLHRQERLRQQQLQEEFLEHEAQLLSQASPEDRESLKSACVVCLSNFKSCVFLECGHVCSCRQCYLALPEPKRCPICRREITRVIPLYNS
Briefly: co-IP.

No constants are given. Whether binding was seen depends on the method and setting. Binding seen in cells or lysates may run through a third protein. Some binding calls cover weakened binding; strength is not graded here.

B1: ABCD3 (mouse, endogenous in liver) (protein, UniProt P55096 1-659)
chain: MAAFSKYLTARNTSLAGAAFLLLCLLHKRRRALGLHGKKSGKPPLQNNEKEGKKERAVVDKVFLSRLSQILKIMVPRTFCKETGYLLLIAVMLVSRTYCDVWMIQNGTLIESGIIGRSSKDFKRYLFNFIAAMPLISLVNNFLKYGLNELKLCFRVRLTRYLYEEYLQAFTYYKMGNLDNRIANPDQLLTQDVEKFCNSVVDLYSNLSKPFLDIVLYIFKLTSAIGAQGPASMMAYLLVSGLFLTRLRRPIGKMTIMEQKYEGEYRYVNSRLITNSEEIAFYNGNKREKQTIHSVFRKLVEHLHNFIFFRFSMGFIDSIIAKYVATVVGYLVVSRPFLDLAHPRHLHSTHSELLEDYYQSGRMLLRMSQALGRIVLAGREMTRLAGFTARITELMQVLKDLNHGRYERTMVSQQEKGIEGAQASPLVPGAGEIINTDNIIKFDHVPLATPNGDILIQDLSFEVRSGANVLICGPNGCGKSSLFRVLGELWPLFGGRLTKPERGKLFYVPQRPYMTLGTLRDQVIYPDGKEDQKKRGISDQVLKEYLDNVQLGHILEREGGWDSVQDWMDVLSGGEKQRMAMARLFYHKPQFAILDECTSAVSVDVEDYIYSHCRKVGITLFTVSHRKSLWKHHEYYLHMDGRGNYEFKKITEDTVEFGS
Consider B1, for which the binding entry is “binds”.

The values above are taken from doi:10.1101/2022.03.03.482848.
